# Measurements as given in patent US20260083743A1, “NUCLEOSIDE DERIVATIVE FOR PREVENTING AND TREATING INFLAMMATION AND APPLICATION THEREOF” (WEST CHINA HOSPITAL OF SICHUAN UNIVERSITY, priority 2019, published 2026).
# Some of these results come from one statement about several compounds together.
# Tested on: C57 mice
# Experiment: Toxicity test, 180 consecutive days by gavage in C57 mice
# Assay type: in vivo
# Details: compared with aspirin, ibuprofen, indomethacin, phenylbutazone, diclofenac, piroxicam and glucocorticoid
# Procedure: In this example, the toxicities of compounds 1-19 prepared in example 1 were analyzed.
# C57 mice were given compounds 1-19 at a dose of 100 mg/kg/D for 180 consecutive days by gavage. One hour after the last administration of the drug, the mice were anesthetized by intraperitoneal injection of sodium pentobarbital (40 mg/kg), placed on a constant temperature hot plate at 37±1° C., blood was taken by cardiac puncture or pathological sections were made to detect the side effects (gastrointestinal reaction, nervous system toxicity, hematological toxicity, allergic reaction, nephrotoxicity, hepatotoxicity, rash and asthma) The side effects of aspirin, ibuprofen, indomethacin, phenylbutazone, diclofenac, piroxicam and glucocorticoid groups were investigated according to the same administration method as compounds 1-19.
row,Structure (SMILES),Side effects (in words)
1,"CC(C)n1cnc2c(=O)[nH]cnc21 [Compound 6, 9-isopropyl hypoxanthine]",significantly less side effects
2,"CC(C)NCCn1c(=O)c2c(ncn2C)n(C)c1=O [Compound 13, 1-(2-isopropylaminoethyl)-3,7-dimethylxanthine]",significantly less side effects
3,"CCn1cnc2c1c(=O)n(C)c(=O)n2C [Compound 4, 1,3-dimethyl-7-ethylxanthine]",significantly less side effects
4,"CCC(=O)OCCn1c(=O)c2c(ncn2C)n(C)c1=O [Compound 9, 1-(propionic acid-2-ethyl)-3,7-dimethylxanthine]",significantly less side effects
5,"CC(C)n1c(=O)c2c(ncn2C)n(C)c1=O [Compound 2, 1-isopropyl-3,7-dimethylxanthine]",significantly less side effects
6,"CC(C)C(=O)OCCn1c(=O)c2c(ncn2C)n(C)c1=O [Compound 10, 1-(isopropyl acid-2-ethyl)-3,7-dimethylxanthine]",significantly less side effects
7,"CCn1c(=O)c2c(ncn2CC)n(C)c1=O [Compound 5, 1,7-diethyl-3-methylxanthine]",significantly less side effects
8,"CC(=O)CCn1c(=O)c2c(ncn2C)n(C)c1=O [Compound 15, 1-(2-acetylethyl)-3,7-dimethylxanthine]",significantly less side effects
9,"CC(C)n1c(=O)c2c(ncn2C(C)C)n(C)c1=O [Compound 7, 1,7-diisopropyl-3-methylxanthine]",significantly less side effects
10,CC(C)C(=O)NCCn1c(=O)c2c(ncn2C)n(C)c1=O [Compound 17],significantly less side effects
11,"CNCCn1c(=O)c2c(ncn2C)n(C)c1=O [Compound 11, 1-(2-methylaminoethyl)-3,7-dimethylxanthine]",significantly less side effects
12,"CC(=O)OCCn1c(=O)c2c(ncn2C)n(C)c1=O [Compound 8, 1-(acetic acid-2-ethyl)-3,7-dimethylxanthine]",significantly less side effects
13,"CC(C)n1c(=O)[nH]cc(F)c1=O [Compound 19, 3-isopropyl-5-fluorouracil]",significantly less side effects
14,"CCn1c(=O)c2c(ncn2C)n(C)c1=O [Compound 1, 1-ethyl-3-7-dimethylxanthine]",significantly less side effects
15,"CCn1c(=O)c2ncn(C)c2n(C)c1=O [Compound 3, 1-ethyl-3,9-dimethylxanthine]",significantly less side effects
16,"CCC(=O)CCn1c(=O)c2c(ncn2C)n(C)c1=O [Compound 16, 1-(2-propionylethyl)-3,7-dimethylxanthine]",significantly less side effects
17,"CCCNCCn1c(=O)c2c(ncn2C)n(C)c1=O [Compound 14, 1-(2-propylaminoethyl)-3,7-dimethylxanthine]",significantly less side effects
18,"CCCC(=O)CCn1c(=O)c2c(ncn2C)n(C)c1=O [Compound 18, 1-(2-butyrylethyl)-3,7-dimethylxanthine]",significantly less side effects
19,"CCNCCn1c(=O)c2c(ncn2C)n(C)c1=O [Compound 12, 1-(2-ethylaminoethyl)-3,7-dimethylxanthine]",significantly less side effects
